The results in this text go back to publication doi:10.1101/2020.05.08.084814.

Results are given in words; binding and its absence hold for the method and conditions named. In cells and extracts the contact can be indirect. Binding calls can cover weak binding; strength is not graded here.

The assay deals with Vera (Igf2bp3) (Xenopus laevis (endogenous in oocytes)). As to the kind of experiment: co-IP.

B1: Stau1 (Staufen1) (protein, UniProt Q6GM35 1-708)
chain: MSQAPKSPAAPLPKIQILNKNQHSPLPQPLSIPSTASPLPSENAGRPLQNSALPSPSVTSSGPTAVSSNMANPKEKTPMCLVNELARFNKIQPVYKLLSEQGPAHSKVIPLGRWQDYSLLERVGEERPRQMFTVQLTLGDQYWEAEGTSIKKAQHAAAAKALEGTKYPKPTVRPVRDSITPTVELNALCMKLGRKPIYKPLDPYTGIRSAYNYNMRGGGYPPRYFYPFPVAPILYQVELSVGGQQFHGKGRTRQAAKHDAAARALKSLHHEPLPDKPALNGKAADEENLNKSEISQVFEIALKRNMSVNFEVTKETGPPHMKSFLTKVIVGEFLGEGEGKSKKISKKNAAIAVLEELRKLPPLPTVEKMRPKIKKKTKSIVKLPTSPEYGQGMNPISRLAQIQQAKKGKEPEYILITERGLPRRREFVMQVKVGNHAAEGSGTNKKVAKRNAAENMLEILGFKVPPPPPKPALKTEEKLPVKKPGDGRKVTFYEPGSGEDGANHNKDDEFRMPYHSHQQLPAGILPMVPEVAQAVGVNQGLHTKEFNRVAPNPAKATVTAMIARELLYAGISPTADTILKNNNAAGHVLRGPFTRPSEQLNYLSRVQGLEVEYKDFPKNNKNEFVSLINCSSQPPLISHGIGKDVESCHDMAALNILKLLSELDQQNPEMPRTGNGPMSVCVKPEMESDPLLKPANSNTLGQTLDSTA
Consider B1, for which the binding entry is “binds”.

B2: hnRNPAB (40LoVE) (protein, UniProt A0A7M4CIF6 1-304)
chain: MSDTEQQCLETNAENGHEACDAEAAEDKAPTGQNGAEGEQINASKGEEDAGCVADISSPLTEGVKMFVGGLSWDTSKKDLKDYFAKFGEVSDCTIKMDPNTGRSRGFGFILFKDAESVDKVLEHKEHRLDGRLIDPKKAMAMKKDPIKKIFVGGLNPEAGEDQIREYFETFGEIEAIELPMDPKTNKRRGFVFITFKEEDPVKKILEKKFHNVSGSKCEIKIAQPKEVYQQQYGGRGGSFGGRGGRGGKGQGQNWNQGYNYWNQGYGNQGYGGYGQQGYGGYGNYDYSGYGYYGYGPGYDYSKN
On to B2, for which the binding entry was “binds”.
